# Source: PubChem BioAssay AID2551 (National Center for Advancing Translational Sciences (NCATS), 2010)
# Amino acid sequences for entries named in this document (tags omitted). A change or cut given only in a name is not applied to a line headed by its entry.
# UniProt P51450: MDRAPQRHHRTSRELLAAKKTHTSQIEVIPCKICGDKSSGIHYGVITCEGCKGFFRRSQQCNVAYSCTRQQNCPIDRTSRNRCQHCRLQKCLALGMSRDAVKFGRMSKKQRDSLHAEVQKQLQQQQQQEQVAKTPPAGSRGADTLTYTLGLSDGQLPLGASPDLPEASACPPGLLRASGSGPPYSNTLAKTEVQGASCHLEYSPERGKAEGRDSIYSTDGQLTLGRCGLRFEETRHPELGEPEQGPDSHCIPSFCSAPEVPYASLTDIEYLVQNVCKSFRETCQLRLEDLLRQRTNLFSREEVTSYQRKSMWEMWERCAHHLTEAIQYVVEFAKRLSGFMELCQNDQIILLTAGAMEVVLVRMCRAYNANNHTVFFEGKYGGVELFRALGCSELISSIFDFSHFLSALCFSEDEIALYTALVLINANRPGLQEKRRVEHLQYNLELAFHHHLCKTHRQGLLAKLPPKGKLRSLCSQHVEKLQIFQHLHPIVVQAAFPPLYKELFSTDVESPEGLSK
# About 17,000 (5.5%) of roughly 310,000 compounds were called active. Inconclusive means that the source gave no clear call. Such entries were picked first, then a sample of the others. The call rests on the fitted dose curve; in most records, active means well fitted inhibition curve with a large enough effect; inconclusive means small, poorly fitted or top-dose-only effect, or effect the other way; inactive means no such curve, though single readings can be large or run the other way. Potencies of inconclusive entries are doubtful fits and often do not repeat.
# Biological target: Nuclear receptor ROR-gamma (Mus musculus) (UniProt P51450)
# Experiment: qHTS for inhibitors of ROR gamma transcriptional activity; further: nearly all actives have a fitted effect of over 60% in size
# Conditions: Drosophila S2 Gal4-RORgamma UAS-luciferase reporter, 20 h; series mostly up to 53.6 µM
# Procedure, shortened: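 Using a luciferase readout, inhibitors were identified by reduced reporter activity in Drosophila cells coexpressing a copper-inducible Gal4–ROR gamma fusion and UAS-driven Photinus luciferase, incubated 20 hr after 700 uM copper sulfate.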
# Potency means the concentration at half of the fitted maximal effect.
row,SMILES,Potency
1,Cc1cccc(NC(=O)C2CCN(c3ncnc4c3nc3n4CCCCC3)CC2)n1,"inconclusive: 25.1 µM [activator, single point]"
2,O=S(=O)(Nc1cccc(-c2cn3cccnc3n2)c1)c1ccc(-c2ccccc2)cc1,"inconclusive: 22.4 µM [activator, single point]"
3,O=C(OCc1cccc(Cl)c1)c1cc(S(=O)(=O)N2CCCCC2)ccc1N1CCOCC1,inactive
4,CC(C)NC(=O)c1onc(CSc2cccc(Cl)c2)c1C(=O)O,"inconclusive: 35.5 µM [inhibitor, single point]"
5,Cc1ccc(N(C(=O)C2COc3ccccc3O2)C(C(=O)NC2CCCCC2)c2cn(C)nc2C)cc1 (stereo not given),"inconclusive: 11.2 µM [activator, partial curve]"
6,CCCC(=Nc1ccccc1OC)C1=C(O)CC(c2ccccc2)CC1=O (stereo not given),inactive
7,COc1ccc(N2C(=O)c3ccc(C(=O)Nc4ccccc4OC)cc3C2=O)cc1,"inconclusive: 11.2 µM [activator, partial curve]"
8,C/C(=N\N=C(/N)SC1CC(=O)N(c2ccc(Cl)c(Cl)c2)C1=O)c1cccs1 (stereo not given),"inconclusive: 22.4 µM [inhibitor, single point]"
9,NC(=S)NNC(=O)C12CC3CC(CC(C3)C1)C2,"inconclusive: 17.8 µM [inhibitor, single point]"
10,Cc1ccc(NC(=S)/C(=C(\[O-])c2ccc(F)cc2)[n+]2ccccc2)cc1,inactive
11,Cc1ccc(Cl)c(OC(=O)Cn2cnc3c2c(=O)n(C)c(=O)n3C)c1,inactive
12,CCn1cc(C(=O)NCCCO)c(=O)c2cc(F)c(N3CCN(C)CC3)cc21,inactive
13,Cc1ccc(S(=O)(=O)CC(=O)NC(C)c2ccccc2)cc1 (stereo not given),inactive
14,S=C(NCC1CCCO1)NC12CC3CC(CC(C3)C1)C2 (stereo not given),active: 0.631 µM
15,Cc1ccc(S(=O)(=O)N(CC(=O)NCc2ccco2)Cc2ccc(F)cc2)cc1,"inconclusive: 6.31 µM [inhibitor, partial curve, poor fit]"
16,Cc1ccc(NC(=O)CSc2ncccc2C(=O)Oc2cccc([N+](=O)[O-])c2)cc1Cl,"inconclusive: 35.5 µM [inhibitor, single point]"
17,O=C(N/N=C/C(Cl)=C\c1ccccc1)c1ccco1,"inconclusive: 3.55 µM [activator, single point]"
18,COc1ccc(/C=N\NC(=O)C2C(=O)NCC2c2ccccc2)cc1O (stereo not given),inactive
19,COc1ccccc1-c1c(C)nn2c(N)c(-c3ccccc3)cnc12,inactive
20,CS(=O)(=O)c1nc(-c2ccccc2)cc(-c2ccccc2)c1C#N,active: 10 µM
21,CC(=O)Nc1ccccc1OC(C)C(=O)N1CC(C)CC(C)C1 (stereo not given),"inconclusive: 12.6 µM [activator, single point]"
22,Cc1ccc(C(=O)NCCn2c(N)c(C#N)c3nc4ccccc4nc32)cc1,inactive
23,COc1ccccc1CCNC(=O)c1ccc2nc[nH]c2c1,inactive
24,O=C(NCc1ccco1)c1ccc(CS(=O)(=O)Cc2ccc(F)cc2)o1,"inconclusive: 0.794 µM [activator, single point]"
25,Cc1cccc(NC(=O)NNC(=O)c2c(Cl)c(C)nn2C)c1,"inconclusive: 20 µM [activator, single point]"

# Three entries from above, sorted by formula weight, descending.
row,SMILES,Potency
20,CS(=O)(=O)c1nc(-c2ccccc2)cc(-c2ccccc2)c1C#N,active: 10 µM
25,Cc1cccc(NC(=O)NNC(=O)c2c(Cl)c(C)nn2C)c1,"inconclusive: 20 µM [activator, single point]"
13,Cc1ccc(S(=O)(=O)CC(=O)NC(C)c2ccccc2)cc1 (stereo not given),inactive

# The list continues:

row,SMILES,Potency
1,CC(/C=N/NC(=O)c1ccccc1F)=C\c1ccccc1,inactive
2,C[C@H](NC(=O)c1[nH]cnc1C(=O)Nc1ccc(CNC(=O)OC(C)(C)C)cc1)C(=O)OC(C)(C)C,active: 8.91 µM
3,COc1ccc(-c2nc3ccccn3c2Cl)cc1,active: 15.8 µM
4,O=c1c2[nH]cnc2n(-c2ccc(F)cc2)c(=O)n1Cc1ccccc1,"inconclusive: 35.5 µM [activator, single point]"
5,Cc1cc(C)n2cc(CSc3ccc(Br)cc3)nc2n1,"inconclusive: 14.1 µM [activator, single point]"
6,COc1ccccc1OC(=O)Cc1cccc2ccccc12,"inconclusive: 0.794 µM [inhibitor, single point]"
7,CC(NC(=O)C12CC3(C)CC(C)(CC(C)(C3)C1)C2)C(=O)O (stereo not given),"inconclusive: 11.2 µM [activator, partial curve]"
8,COc1cccc(NC(=O)CCC2CCN(C(=O)c3ccc(C(C)=O)s3)CC2)c1,inactive
9,Cc1nc2sc(C(c3ccco3)N3CCN(C(c4ccccc4)c4ccccc4)CC3)c(O)n2n1 (stereo not given),inactive
10,CCCCc1c(O)nc(SCC(=O)Nc2cccc3ccccc23)n(-c2ccccc2OC)c1=O,"inconclusive: 4.47 µM [activator, partial curve]"
11,CCOc1ccc(C(CC(=O)O)NS(=O)(=O)c2ccc(C)cc2)cc1OC (stereo not given),inactive
12,CCOC(=O)NC(=S)Nc1cccc(NC(=S)NC(=O)OCC)c1,active: 7.08 µM
13,CN1CCCC1CCNc1ccc2c(=O)c3ccccc3oc2c1 (stereo not given),"inconclusive: 22.4 µM [inhibitor, single point]"
14,Cc1cccc(-n2cnc3c(c2=O)c2nc4ccccc4nc2n3Cc2ccco2)c1,"inconclusive: 35.5 µM [inhibitor, single point]"
15,CC(C)c1nc2sc3c(=O)[nH]cnc3c2c2c1CCC2,inactive
16,COc1ccc(NC(=O)c2ccc(=O)oc2)cc1,"inconclusive: 5.62 µM [activator, single point]"
17,Fc1ccc(NC(=S)NN2CCOCC2)cc1Cl,active: 2.82 µM
18,CCOC(=O)N1N=C(CC)CC1(O)C(F)(F)F (stereo not given),inactive
19,CCOC(=O)c1c(C)[nH]c(C)c1C(=O)COC(=O)c1ccc(Cl)c(S(N)(=O)=O)c1,"inconclusive: 0.794 µM [inhibitor, single point]"
20,CCC1(CC)NC(=O)N(CC(=O)NC(=O)NCc2ccccc2)C1=O,inactive
21,O=C(Nc1cccc(Cl)c1N1CCOCC1)c1ccc(Br)o1,inactive
22,CC(NC(=O)C(=O)N1CCCCC1)C(c1cccs1)N1CCN(C)CC1 (stereo not given),inactive
23,CCCCc1ccc(NC(=S)NCc2cccnc2)cc1,"inconclusive: 35.5 µM [inhibitor, single point]"
24,CCc1c(C)sc(NC(=O)Cc2ccccc2C)c1C(=O)N1CCOCC1,inactive
25,COc1ccc(C(=O)/C=C(/C)N(C)C)cc1,"inconclusive: 11.2 µM [inhibitor, single point]"
